Results are given in words; binding and its absence hold for the method and conditions named. Some entries that bind do so weakly or less than the wild type. Where a sequence is shown, tags or fusion partners need not be part of it.
Tests used:
Assay in all cases: peptide or protein array
[1] = target: RDR2 peptide 13 of the RDR2_(771-970) peptide array (Arabidopsis thaliana) (UniProt O82504)
[2] = target: RDR2 peptide 9 of the RDR2_(771-970) peptide array (Arabidopsis thaliana) (UniProt O82504)
[3] = target: NRPD1 peptide 12 of the NRPD1_(1-300) peptide array (Arabidopsis thaliana) (UniProt Q9LQ02)

B1: recombinant NRPD1 amino acids 1-300 fused to His and FLAG tags, expressed in E. coli (domain or fragment, UniProt Q9LQ02 1-300)
chain: MEDDCEELQVPVGTLTSIGFSISNNNDRDKMSVLEVEAPNQVTDSRLGLPNPDSVCRTCGSKDRKVCEGHFGVINFAYSIINPYFLKEVAALLNKICPGCKYIRKKQFQITEDQPERCRYCTLNTGYPLMKFRVTTKEVFRRSGIVVEVNEESLMKLKKRGVLTLPPDYWSFLPQDSNIDESCLKPTRRIITHAQVYALLLGIDQRLIKKDIPMFNSLGLTSFPVTPNGYRVTEIVHQFNGARLIFDERTRIYKKLVGFEGNTLELSSRVMECMQYSRLFSETVSSSKDSANPYQKKSDT
[1]
  binding: no binding (tested: ~200 ng in 8 ml)
[2]
  binding: no binding (tested: ~200 ng in 8 ml)

B2: recombinant RDR2 amino acids 771-970 fused to His and HA tags, expressed in E. coli (domain or fragment, UniProt O82504 771-970)
chain: ETSVVIGKVVVTKNPCLHPGDIRVLDAIYEVHFEEKGYLDCIIFPQKGERPHPNECSGGDLDGDQFFVSWDEKIIPSEMDPPMDYAGSRPRLMDHDVTLEEIHKFFVDYMISDTLGVISTAHLVHADRDPEKARSQKCLELANLHSRAVDFAKTGAPAEMPYALKPREFPDFLERFEKPTYISESVFGKLYRAVKSSLAQ
[3]
  binding: binds

Source: paper doi:10.1101/2020.09.09.290171 (bioRxiv, 2020)
